From publication PMC7695847, “The structural basis of promiscuity in small multidrug resistance transporters” (Nature Communications, 2020)

System: T1, Gdx-Clo
T1 construct: gene HMPREF1982_00479; full-length; C-terminal His6 tag with LysC site, tag cleaved by LysC; expressed in E. coli C41(DE3); antiparallel homodimer
Assay: X-ray crystal structure of complex
Assay type: binding, Clostridiales bacterium oral taxon 876
Conditions: co-crystallised with monobody Clo-L10

SMILES	X-ray crystal structure of complex (pH 7.5, near E13B, tail in TM2 membrane portal)	X-ray crystal structure of complex (2.5 Å, pH 8.8, near E13, also a transported substrate)
CCCCCCCCNC(=N)N [octylGdm^+]	we solved a structure of Gdx-Clo in complex with octylGdm^+	–
N=C(N)Nc1ccccc1 [phenylGdm^+]	–	we solved a structure of the Gdx-Clo/L10 monobody complex together with a non-natural transported substrate, phenylGdm^+
